AC50 data for 63 molecules are collected here from PubChem BioAssay AID445 (National Center for Advancing Translational Sciences (NCATS), 2006).

The assay is described as follows: IkB Signaling. To be noted: ABC-DLBCL IkBa-CBG/CBR dual luciferase ratio (green luciferase fused to IkBa over red control in OCI-Ly3 lymphoma cells), 4 h. In short, it runs like this: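 Curves were fitted separately to fusion (green), unfused (red) and ratio luminescence, then classed by r2, magnitude and activity. Cells: OCI-Ly3, 4 h compound plus doxycycline at 37C; 10 uM MG-132 defined full response.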
Setting [1] is: measured here: control luc red channel unless noted.
[2] abbreviates: measured here: IkB-luc green channel.
The mark [3] stands for this setting: measured here: control luc red channel.

SMILES strings stand for the structures. Some of the results follow. These are further read-outs of the screen, such as a control signal, another cell line or another target. No call is given for them. The list favours compounds with an active or inconclusive main result. Words in brackets tell the shape of the fitted curve; partial curves, single points and poor fits give uncertain potencies.

As usually defined, the AC50 is the midpoint of the concentration-response curve, whichever way the signal moves. Regarding `O=C(CSc1nc(=O)n(Cc2ccco2)c2c1CCC2)NCc1ccc(Cl)cc1`, under setting [1], the AC50 is 20 µM [falling, partial curve].
On to `Cc1ccc(NC(=O)CCn2c(=O)c3cccn3c3ccccc32)cc1Cl`, for which the AC50 under setting [1] was 25.1 µM [falling, single point].
Regarding `COc1cc(OC)c(NC(=O)Cn2cnc3sc(C)c(S(=O)(=O)N4CCC(C)CC4)c3c2=O)cc1Cl`, the concentration at half-maximal activity (AC50) under setting [1] was 3.98 µM [falling, full curve].
Turning to `COc1ccc2c(c1)sc1nc(-c3ccccc3)cn12`, the AC50 runs as follows: under setting [2], 3.16 µM [rising, partial curve]; under setting [3], 3.16 µM [falling, full curve].
On to `Cc1cc(C)c2nc(N(Cc3cccnc3)C(=O)Cc3ccccc3)sc2c1`, for which, under setting [1], the AC50 is 25.1 µM [falling, partial curve].
On the same count and under the same terms, with `Cc1ccc(C(=O)N2CCN(Cc3cc(=O)n4nc(-c5ccccc5)sc4n3)CC2)cc1` the figure was 3.16 µM [falling, full curve, poor fit]; with `Cc1cc(NC(=O)Nc2nnc(N3CCCCC3)s2)ccc1Br`, 31.6 µM [falling, single point].
For the molecule `COc1ccccc1CNC(=O)CSc1nc(=O)[nH]c2c1CCCC2`, under setting [1], the AC50 was 3.16 µM [falling, partial curve].
Still for that read-out and setting: as for `COc1cccc(-c2nc(CS(=O)(=O)CC(=O)NCCc3ccc(Cl)cc3)c(C)o2)c1`, the figure is 1.26 µM [falling, partial curve, poor fit].
The same measure, in the same setting: with `Cc1ccc(-n2ncc3c(Nc4cccc(C(F)(F)F)c4)ncnc32)cc1C` the figure was 3.16 µM [falling, full curve]; with `CC1CCCCN1C(=O)CSc1c2c(nc3cc(Cl)ccc13)CCCC2` (stereo not given), 25.1 µM [falling, single point]; with `CCOCCn1c(=O)c2c(nc3n2CCN3c2ccc(C)c(C)c2)n(C)c1=O`, 31.6 µM [falling, single point].
Still for that read-out and setting: as for `CC(C)c1ccc(NC(=O)c2cnc3sc(N4CCOCC4)nn3c2=O)cc1`, the figure is 39.8 µM [falling, single point]; as for `COc1ccc(NC(=O)CN(C)S(=O)(=O)c2ccc3c(c2)c(=O)n(C)c(=O)n3C)cc1`, 7.94 µM [falling, partial curve].
On to `COc1ccc(OC)c(NC(=O)Cn2cnc3onc(-c4ccc(Cl)cc4)c3c2=O)c1`, for which the AC50 under setting [1] was 0.2 µM [falling, full curve].
Same read-out and setting: with `COc1ccc(-c2nc3ccc(Cl)cn3c2Nc2ccc(C)cc2)cc1` the figure was 15.8 µM [falling, single point]; with `CCCCNC(=O)c1cn(C)c2ccc(S(=O)(=O)N3CCCC3)cc2c1=O`, 2.51 µM [falling, full curve].
Turning to `Cc1ccc(C(=O)NCC(c2ccco2)S(=O)(=O)c2ccc(Cl)cc2)cc1C` (stereo not given), the AC50 under setting [1] was 10 µM [falling, partial curve].
The same measure, in the same setting: with `COc1cccc(-c2csc(-c3c(N)c(C(=O)c4ccc5c(c4)OCO5)n4ccccc34)n2)c1` the figure was 5.01 µM [falling, partial curve]; with `CCOc1ccc(C2C(C(=O)Nc3ccccc3)=C(C)Nc3nc(-c4ccccc4)nn32)cc1OC` (stereo not given), 20 µM [falling, single point]; with `CCCCn1c(SCc2nnc(-c3ccccc3)o2)nc2c1c(=O)n(C)c(=O)n2C`, 39.8 µM [falling, partial curve].
On the same count and under the same terms, as for `Cc1cc(C)n(CCc2nc3c4ccccc4nc(SCc4ccc(F)cc4)n3n2)n1`, the figure is 0.00631 µM [rising, full curve, poor fit].
Regarding `Cc1ccc(CNC(=O)c2c[nH]c3ccc(S(=O)(=O)N4CCOCC4)cc3c2=O)cc1`, the AC50 under setting [1] was 0.501 µM [rising, full curve].
On the same count and under the same terms, with `COc1cc(NC(=O)Nc2ccccc2OC)c(OC)cc1NC(=O)CN1CCCCC1` the figure was 0.0794 µM [falling, full curve].
On the same count and under the same terms, with `CC(C)c1nn2c(=O)cc(COC(=O)C3CCCCC3)nc2s1` the figure was 6.31 µM [rising, single point].
`Cc1ccc(NC(=O)c2ccc3ccccc3n2)nc1`: under setting [1], the concentration at half-maximal activity (AC50) is 12.6 µM [falling, partial curve].
In the case of `COc1ccc(OCc2cccc(C(=O)O)c2)cc1`, the AC50 under setting [1] was 0.251 µM [falling, full curve].
The same measure, in the same setting: as for `Cc1ccc(CN(Cc2ccco2)C(=O)c2ccccc2Br)o1`, the figure is 25.1 µM [falling, single point]; as for `Cc1cc(Br)cc(C)c1NC(=O)c1sc2ncn(Cc3cccc(F)c3)c(=O)c2c1C`, 0.631 µM [falling, full curve]; as for `Cc1ccccc1N1C(=O)c2cccc3c(N(C)CCO)ccc(c23)C1=O`, 25.1 µM [falling, partial curve].
Consider `Cn1c(=O)c2c(nc(CN3CCc4ccccc4C3)n2Cc2cccc(Cl)c2)n(C)c1=O`, for which, under setting [1], the AC50 was 10 µM [falling, partial curve].
With `Cc1ccc(-n2cnc3cc(C(=O)NCCC4=CCCCC4)ccc32)c(C)c1`, the half-maximal activity concentration (AC50) under setting [1] is 39.8 µM [falling, single point].
Same read-out and setting: as for `Cc1ccc(-c2cc3c(nn2)-c2ccccc2C3=O)cc1`, the figure is 3.98 µM [falling, full curve]; as for `CCC(c1nnnn1CS(=O)(=O)c1ccc(C)cc1)N1CCN(c2nc3ccccc3s2)CC1` (stereo not given), 25.1 µM [falling, partial curve].
On the same count and under the same terms, as for `CCc1ccc(NC(=O)c2sc(-n3nc(C)c(CCC(C)C)c3C)nc2C)cc1`, the figure is 0.631 µM [falling, full curve, poor fit]; as for `COc1ccc(OCc2ccc(C(=O)O)cc2)cc1`, 10 µM [falling, partial curve].
With `COc1ccc(NC(=O)c2ccc3oc(=O)c(S(=O)(=O)c4ccc(F)cc4)cc3c2)cc1OC`, the AC50 is, setting by setting: under setting [2], 5.01 µM [rising, full curve]; under setting [3], 6.31 µM [falling, partial curve].
Consider `Cc1c(C(=O)Nc2ccc(F)cc2F)oc2c1-c1nn(Cc3c(F)cccc3Cl)cc1CC2`, for which, under setting [1], the AC50 was 31.6 µM [falling, single point].
On the same count and under the same terms, with `O=C(NC1CC(=O)N(c2ccc(F)cc2)C1)C1CCCC1` (stereo not given) the figure was 3.16 µM [rising, partial curve]; with `COc1ccc(C)cc1NC(c1nnc(-c2ccccc2)o1)c1ccc(F)cc1Cl` (stereo not given), 5.01 µM [falling, partial curve, poor fit]; with `O=C(CN1CCN(C(=O)c2ccco2)CC1)Nc1ccc(Cl)c(C(F)(F)F)c1`, 12.6 µM [falling, partial curve].
Still for that read-out and setting: as for `CCc1ccc(N2CC(c3nnc(NC(=O)c4ccco4)s3)CC2=O)cc1` (stereo not given), the figure is 12.6 µM [falling, partial curve]; as for `CCOC(=O)c1nnn(-c2nonc2N)c1CNc1ccc(C)c(Br)c1`, 20 µM [falling, partial curve]; as for `COc1ccccc1NC(=O)CSc1oc(-c2ccco2)nc1S(=O)(=O)c1ccc(C)cc1`, 0.316 µM [falling, full curve].
As for `CCOc1ccc(NC(=O)c2oc3ccccc3c2NC(=O)C(C)(C)C)cc1`, under setting [1], the AC50 was 31.6 µM [falling, single point].
Same read-out and setting: as for `Cc1nn(-c2cccc(Cl)c2)c2c1C(c1cccnc1)C(C#N)=C(N)O2` (stereo not given), the figure is 39.8 µM [falling, single point]; as for `O=C(CC1N=C2c3ccccc3N=C(SCC(=O)Nc3ccc(F)cc3)N2C1=O)NCc1ccco1` (stereo not given), 12.6 µM [falling, partial curve]; as for `CS(=O)(=O)Nc1cccc(-c2ccc3ncnc(N4CCOCC4)c3c2)c1`, 3.98 µM [rising, partial curve].
On to `Cc1ccc(C(=O)Nc2nnc(S(=O)(=O)N(C)Cc3ccc(Cl)cc3)s2)cc1`, for which, under setting [1], the AC50 was 2 µM [falling, full curve].
Still for that read-out and setting: with `COc1cc(Nc2ncc3c(n2)CCN(Cc2ccc(OC(C)C)c(OC)c2)C3)cc(OC)c1` the figure was 39.8 µM [falling, partial curve].
Take `CCc1nn2c(=O)cc(COC(=O)c3ccc(NC(=O)COc4ccccc4C)cc3)nc2s1`: the AC50 under setting [1] is 7.94 µM [rising, single point].
Still for that read-out and setting: with `Cc1ccc(-c2nnc3n2N=C(c2ccccc2Br)CS3)cc1` the figure was 39.8 µM [falling, single point]; with `COc1ccc(CCNc2nc(C)nc3c2oc2ccccc23)cc1OC`, 3.98 µM [falling, full curve]; with `Cc1ccc(CN2CCCn3nc(C(=O)NCc4ccc(N(C)C)cc4)cc3C2=O)cc1`, 3.98 µM [falling, partial curve, poor fit].
For the molecule `COc1ccc(CCNc2nc3c(-c4cccc(C(F)(F)F)c4)nnn3c3ccccc23)cc1OC`, the concentration at half-maximal activity (AC50) under setting [1] is 3.98 µM [rising, partial curve, poor fit].
On the same count and under the same terms, as for `Cc1ccc(N=Cc2ccc(O)cc2O)cc1F`, the figure is 12.6 µM [rising, partial curve] [measured here: IkB-luc green channel]; as for `CCOc1ccc(NCc2nnc(SCC(=O)Nc3cc(C)on3)n2-c2ccccc2OC)cc1`, 0.0501 µM [falling, full curve].
In the case of `COc1ccc(-c2cnn(-c3ccccc3)c2N)cc1OC`, the AC50 under setting [1] was 5.01 µM [falling, partial curve].
`O=C(O)CCCC(=O)Nc1ccc(N2CCCC2)cc1`: the AC50 under setting [1] is 3.98 µM [falling, partial curve].
Turning to `CC(C)CNC(=O)Nc1cc(C(=O)NCc2ccc(C(C)C)cc2)ccc1N1CCCC1`, under setting [1], the AC50 is 10 µM [falling, partial curve].
The same measure, in the same setting: as for `CCOC(=O)c1sc2ncn(CC(=O)Nc3cc(Cl)ccc3C)c(=O)c2c1C`, the figure is 0.126 µM [falling, full curve, poor fit]; as for `COc1cccc(NC(=O)C2CCN(c3ncccn3)CC2)c1`, 31.6 µM [falling, single point]; as for `CC(=O)c1ccc(N2CCN(C(=O)c3cc(S(=O)(=O)N4CCCCCC4)cn3C)CC2)cc1`, 10 µM [falling, full curve, poor fit].
